Test system: rumen fluid
Experiment: In vitro fermentation of polyols in an artificial rumen environment using rumen fluid as inoculum
Details: for Acetate / Acetate, % VFA / NH3 / Propionate / Propionate, % VFA / Tot Butyrate, % VFA / pH: after 24 hours in vitro rumen fermentation; for pH: 0.3 grams per bottle, 30 mL total fluid, 20% rumen fluid; for Total VFA / Total Butyrate: after 24 hours; for Total VFA: Total VFA = acetate + propionate + butyrate; for Total Butyrate: total butyrate = n-butyrate + isobutyrate
Method: Fermentations were performed on two separate days where gas production was monitored every 30 minutes. In addition, pH, ammonia (NH3), and volatile fatty acid (“VFA”) production were measured after 24 hours. Duplicate samples of each compound were evaluated using in vitro rumen fermentations.
Duplicate samples of these compounds were fermented in vitro using rumen fluid as inoculum. Samples were weighed into 150 mL serum bottles (0.3 grams per bottle) using a CO2 atmosphere to provide an anaerobic environment. A standard buffered media was prepared (no additional feed matter was included in the fermentation), degassed, and added to the serum bottles (see, Goering, H. K., and P. J. Van Soest, “Forage Fiber Analyses (Apparatus, Reagents, Procedures, and Some Applications),” Agric. Handbook, No 379, ARS-USDA, Washington, D.C., 1970). Rumen fluid was obtained from a dairy cow, filtered, and added to the serum bottles as 20% of the total fluid addition (30 mL total fluid volume). The serum bottles were sealed, placed in an incubator, and the fermentation was allowed to proceed. Fermentations were performed on two separate days, during which time gas production was monitored every 30 minutes and pH, NH3, and VFA production measured after 24 hours.

| SMILES | Acetate | Acetate, % VFA | NH3 | Propionate | Propionate, % VFA | Tot Butyrate, % VFA | pH | Total VFA | Total Butyrate |
| --- | --- | --- | --- | --- | --- | --- | --- | --- | --- |
| OC[C@@H](O)[C@H]1OC[C@H](O)[C@H]1O [Sorbitan, 1,4-anhydro-D-sorbitol] | 4.0 mM | 50.0 % VFA | 59.1 mg/dL | 1.2 mM | 15.0 % VFA | 46.3 % VFA | 6.65 | 8.0 mM | 3.7 mM |
| OC[C@@H](O)[C@@H](O)[C@H](O)[C@@H](O)CO [Sorbitol, sorbitol] | 18.2 mM | 40.3 % VFA | 30.2 mg/dL | 10.5 mM | 23.2 % VFA | 39.4 % VFA | 6.00 | 45.2 mM | 17.8 mM |
| OCC(O)CO [Glycerol, glycerol] | 3.1 mM | 6.5 % VFA | 37.2 mg/dL | 36.9 mM | 77.7 % VFA | 18.5 % VFA | 6.12 | 47.5 mM | 8.8 mM |

Source: patent US8933133B2, “Animal feeds containing polyols” (ADM Alliance Nutrition, Inc., priority 2006, dated 2015)
